Among the data in PubChem BioAssay AID2685 (National Center for Advancing Translational Sciences (NCATS), 2010) are cell number change and AC50 values, retold here.

What is called AC50 is the midpoint of the concentration-response curve, whichever way the signal moves.

This is one part of the list. The main result of the screen is listed elsewhere. These columns were measured beside it and carry no call. Compounds called inactive in the main read-out are mostly missing here. Potencies come from curve fits of mixed quality, noted in brackets.

The experiment is described as follows: qHTS Assay for Lipid Storage Modulators in Drosophila S3 Cells.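 As to cell number change: cells counted by Cell Tracker Red CMTPX staining in the red channel.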 Particulars: BODIPY lipid droplet fluorescence, 18-24 h; for cell number change: measured here: cell count max response, cells fed with added oleic acid. An outline of the steps:
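Laser-scanning cytometry quantifies lipid droplet accumulation (500–530 nm total intensity; droplet/cell object ratio) in oleic acid-fed (400 uM added) Drosophila S3 cells treated with a concentration series. 20 uM Triacsin C defined 100% inhibition.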

The mark [1] stands for this setting: measured here: cell number channel AC50, cells fed with added oleic acid.
[2] abbreviates: measured here: lipid fluorescence (Fed channel) AC50, cells fed with added oleic acid.

As for `O=C(CSc1nnc(-c2cccs2)o1)NCc1ccco1`, the cell number change is -70.9%. Besides, the AC50 under setting [1] was 16.4 µM [falling, single point]. Take `O=C1CC(C(=O)NC2CCCCC2)C(c2ccccc2)O1` (configuration not stated): the concentration at half-maximal activity (AC50) under setting [2] is 0.116 µM [falling, full curve, poor fit]. In the case of `COc1ccc(CCn2c(-c3ccc(OC)cc3)nc3c(c(=O)c4ccccc4n3C)c2=O)cc1`, the cell number change was 24%.

`C#CCOCCOCCOCCNc1nc(N2CCN(C(=O)[C@H]([C@@H](C)O)n3cc(CCCCN)nn3)CC2)nc(N2CCN(C(=O)[C@H](Cc3ccc(O)cc3)n3cc(CCO)nn3)CC2)n1`: the cell number change is 0.231%. Moreover, under setting [1], the AC50 was 5.17 µM [falling, partial curve]. Also, the AC50 under setting [2] is 6.51 µM [falling, partial curve]. Consider `Cc1ccccc1S(=O)Cc1ccc(C(=O)NC2CC2)o1` (configuration not stated), for which the cell number change is -1.77%. In addition, under setting [2], the AC50 is 0.58 µM [rising, single point]. In the case of `CCOc1ccc(CN2CCNC(=O)C2CC(=O)NCc2cc(C)n(C)n2)cc1` (configuration not stated), the AC50 under setting [2] was 29.1 µM [rising, single point]. Turning to `COc1ccccc1-n1c(CNC(=O)c2ccc(S(=O)(=O)N3CCOCC3)cc2)n[nH]c1=S`, the cell number change was 7.73%. The AC50 under setting [1] was 2.91 µM [rising, single point]. Also, the AC50 under setting [2] is 29.1 µM [falling, single point]. On to `Oc1ccccc1Oc1c(F)c(F)nc(N2CCCC2)c1F`, for which, under setting [1], the AC50 is 0.13 µM [rising, full curve, poor fit]. For the compound `CCOc1ccc(/C=N/n2cc(-c3ccccc3)[nH]c2=S)cc1`, the AC50 reads like this: under setting [1], 6.51 µM [falling, single point]; under setting [2], 5.17 µM [falling, single point]. Take `CN(C)C(=O)NCc1ccc(S(N)(=O)=O)cc1`: the cell number change was -43.6%. Moreover, the AC50 under setting [1] was 3.66 µM [falling, full curve]. Moreover, under setting [2], the AC50 is 3.66 µM [falling, full curve]. With `COc1ccc(OC)c(-c2csc(NC(=O)Cc3ccccc3F)n2)c1`, the cell number change stood at 43.8%. Further, the AC50 under setting [1] was 7.31 µM [rising, partial curve]. The AC50 under setting [2] is 23.1 µM [falling, single point].

Turning to `COc1ccc2cc(CN(C(=O)Nc3ccccc3)C3CCCC3)c(=O)[nH]c2c1`, the cell number change was determined as 11.9%. Under setting [2], the AC50 is 2.06 µM [rising, full curve]. As to `CCOc1ccc(CN2CCN(CC(O)Cn3c4ccccc4c4ccccc43)CC2)cc1` (configuration not stated), the cell number change was -69.5%. In addition, the AC50 under setting [1] is 25.9 µM [falling, partial curve, poor fit]. Also, the AC50 under setting [2] was 16.4 µM [falling, partial curve]. Regarding `C/C(=N\N1CCN(Cc2ccc(Cl)cc2)CC1)c1ccc(F)cc1`, the cell number change was -29.1%. The AC50 under setting [2] is 16.4 µM [falling, single point]. `CC(NC(=O)C(=O)NCCC1=CCCCC1)c1ccccc1` (configuration not stated): the cell number change was -4.76%. The AC50 under setting [2] was 1.84 µM [rising, partial curve]. As to `CC1=C(C(=O)OCc2ccccc2)C(c2ccc(Cl)cc2)NC(=O)N1CCCC(=O)O` (configuration not stated), the cell number change was determined as 14.2%. With `Cc1cc(N(C)C)ccc1N=Nc1ccc2ncccc2c1`, the cell number change was -53.5%. Also, the AC50 under setting [1] is 13 µM [falling, partial curve]. Moreover, the AC50 under setting [2] was 2.91 µM [falling, full curve]. Regarding `COc1ccc(C)cc1NC(=O)CN1C(=O)COc2ccc(S(=O)(=O)N3CCCCCC3)cc21`, the cell number change was -21.8%. Under setting [2], the AC50 was 20.6 µM [rising, partial curve]. `Cc1ccc(C(=O)Nc2ccc3c(c2)OCO3)cc1S(=O)(=O)N1CCCCC1`: the cell number change was -23.5%. Also, under setting [2], the AC50 is 0.164 µM [rising, full curve, poor fit].

Regarding `C#CC(C)(CC)NC(=O)Cn1nnc(-c2ccc(S(C)(=O)=O)cc2)n1` (configuration not stated), the cell number change was -33.7%. The AC50 under setting [1] was 6.51 µM [falling, full curve]. For the same compound, the AC50 under setting [2] is 9.2 µM [falling, partial curve, poor fit]. In the case of `CCC(=O)c1ccc(OC(=O)/C=C/c2cc(OC)c(OC)c(OC)c2)cc1`, the cell number change was 13.2%. Turning to `CN(CC(=O)Nc1cccc(F)c1)C(=O)c1ccc2c(=O)n3c(nc2c1)CCC3`, the cell number change was -2.59%. Also, under setting [2], the AC50 was 29.1 µM [falling, single point]. Consider `O=C(CCn1cnc(-c2ccccc2)c1-c1ccccc1)N/N=C/c1ccccc1O`, for which the cell number change is -27.8%. Under setting [2], the AC50 was 29.1 µM [falling, single point]. As for `Cc1ccc2occ(C3N[C@H](C(=O)O)CS3)c(=O)c2c1` (some centres not stated), the cell number change worked out at 29.8%. Besides, the AC50 under setting [1] was 4.11 µM [rising, full curve, poor fit]. In addition, under setting [2], the AC50 was 18.4 µM [rising, single point]. Consider `O=C(NCC1CCCO1)c1ccc(COc2ccccc2)cc1` (configuration not stated), for which the cell number change is -10.8%. For `CCC(NC(=O)c1ccccc1NC(=O)c1ccccc1)C(=O)NNC(=O)c1cccnc1` (configuration not stated), the cell number change was determined as 38.8%. Further, the AC50 under setting [1] is 16.4 µM [rising, partial curve, poor fit]. Besides, the AC50 under setting [2] is 4.11 µM [rising, partial curve, poor fit]. In the case of `CCC(CC)C1C(C#N)=C(N)Oc2cc(C)oc(=O)c21` (configuration not stated), the AC50 under setting [1] was 5.8 µM [rising, single point]. As for `O=C(c1ccc(F)cc1)N1CCN2C(=O)c3ccccc3C12c1ccccc1` (configuration not stated), the cell number change was 14.9%. In addition, the AC50 under setting [2] is 29.1 µM [falling, single point].

As for `Cc1nnc(NC(=O)CSc2nnc(CC(=O)Nc3ccccc3Cl)n2C)s1`, the cell number change is 33.3%. Under setting [1], the AC50 is 0.00461 µM [rising, full curve, poor fit]. In the case of `COc1ccc(Cl)cc1NC(=O)Nc1ccc(C(=O)N2CCCC2)cc1`, the cell number change was -12.9%. With `CCc1ccc(NC(=O)COc2cccc(-n3cnnn3)c2)cc1`, the cell number change was -5.26%. Regarding `CSc1ccc(CN(C)Cc2cc(=O)oc3c(C)c(C)ccc23)cc1`, the cell number change is -33.7%. Take `CC(Oc1ccc(S(=O)(=O)N2CCCC2)cc1[N+](=O)[O-])C(=O)NC1(C#N)CCCCC1` (configuration not stated): the cell number change was 20.1%. Also, the AC50 under setting [2] is 2.59 µM [rising, full curve, poor fit]. For `O=C(NC1CCCC1)c1cc(Cl)ccc1[N+](=O)[O-]`, the cell number change stood at 4.98%. For the same compound, the AC50 under setting [2] was 5.17 µM [rising, full curve, poor fit]. As for `CCCCn1c(N)c(N(CC(C)C)C(=O)c2cc(-c3ccco3)nc3ccccc23)c(=O)[nH]c1=O`, the AC50 runs as follows: under setting [1], 2.91 µM [rising, single point]; under setting [2], 3.66 µM [rising, partial curve]. As to `COC(=O)CCN1CCN(S(=O)(=O)c2ccc3c(c2)OCCO3)CC1`, the cell number change turned out to be 11.4%.

As for `CCc1ccc(S(=O)(=O)c2cn(C)c3cc(OC)c(OC)cc3c2=O)cc1`, the cell number change is 18.9%. Besides, the AC50 under setting [1] is 4.11 µM [rising, single point]. Turning to `COc1cccc(/C=C/C(=O)NCc2cn3cc(Cl)ccc3n2)c1OC`, the AC50 by setting is: under setting [1], 3.66 µM [rising, single point]; under setting [2], 4.61 µM [rising, partial curve, poor fit].

For the compound `CN(C/C=C/c1ccccc1)C1CCCCC1`, the cell number change was -7.18%. In addition, the AC50 under setting [2] was 29.1 µM [rising, single point].

In the case of `CCCN(CCC)S(=O)(=O)c1ccc(C(=O)O)cc1`, the cell number change was found to be 16.4%. Moreover, under setting [2], the AC50 is 29.1 µM [rising, single point]. For `COc1cc(OC)cc(-c2c(-c3cccs3)c3cc(Br)ccc3n2C)c1`, the cell number change was -8.02%. Turning to `CCOc1ccccc1N1CCN(Cc2cccc(OC)c2OC)CC1`, the cell number change was -9.81%. In addition, the AC50 under setting [2] was 16.4 µM [falling, partial curve].

As to `O=C(Nc1ccccc1N1CCOCC1)c1csc2c1CCCC2`, the cell number change was 19.6%. Moreover, the AC50 under setting [2] is 1.84 µM [rising, full curve, poor fit].

Take `CC/C(=N\NC(=O)CNC(=O)/C=C/c1ccc(OC)cc1)c1ccccc1`: the AC50 under setting [2] is 29.1 µM [rising, single point]. On to `CC(C)n1cnnc1SCC(=O)NC(=O)c1ccccc1`, for which the cell number change is -39.7%. For the same compound, under setting [1], the AC50 is 29.1 µM [falling, single point]. Also, under setting [2], the AC50 was 20.6 µM [falling, single point]. Regarding `NC(=O)C1CCN(C(=O)c2ccc3c(=O)n(Cc4ccco4)c(SCC(=O)c4ccc(F)cc4)nc3c2)CC1`, the cell number change was -55.4%. Besides, under setting [1], the AC50 is 11.6 µM [falling, partial curve, poor fit]. Further, the AC50 under setting [2] was 29.1 µM [falling, single point].

For the compound `COc1ccccc1C(=O)OCC(=O)NC(=O)NC1CCCC1`, the cell number change is -6.91%. The AC50 under setting [2] is 0.164 µM [falling, full curve].

Turning to `C=CCNC(=O)C1CC(=O)N(c2ccc(OCC(=O)NCc3ccccc3)cc2)C1` (configuration not stated), the cell number change is -10.2%. For the compound `CCC(=O)c1ccccc1OCCN1C(=O)NC(C)(C)C1=O`, the cell number change was -0.647%. The AC50 under setting [2] is 11.6 µM [rising, single point]. With `COc1cc(C2C(C(=O)c3ccc(C)o3)=C(O)C(=O)N2CCCn2ccnc2)cc(OC)c1OC` (configuration not stated), the cell number change was found to be 1.72%. Besides, the AC50 under setting [2] is 3.26 µM [rising, partial curve]. As for `CCN(CCNCC(O)COc1ccccc1C(C)C)c1cccc(C)c1` (configuration not stated), the cell number change is -11.1%. Also, the AC50 under setting [2] is 0.116 µM [falling, full curve, poor fit]. Turning to `Cc1cccc(NC(=O)Cn2nnc3sc4c(c3c2=O)CC(C)(C)OC4)c1`, the cell number change came to 11%. Further, under setting [1], the AC50 is 2.31 µM [rising, single point]. As to `CC(C(=O)Nc1ccccc1Oc1ccccc1)c1ccccc1` (configuration not stated), the cell number change came to 34.4%. For the same compound, the AC50 under setting [1] is 11.6 µM [rising, partial curve]. In addition, the half-maximal activity concentration (AC50) under setting [2] is 1.84 µM [rising, single point]. Turning to `Cc1ccc(NS(=O)(=O)N2CCOCC2)c(C)c1`, the cell number change worked out at 4.46%. Under setting [2], the AC50 is 6.51 µM [falling, single point]. Consider `O=C(NC(=S)NC1CCCC1)c1ccccc1Br`, for which the cell number change was found to be 19.1%. In addition, the concentration at half-maximal activity (AC50) under setting [2] is 14.6 µM [rising, single point].

In the case of `CN(C)S(=O)(=O)N(CC(=O)N1CCOCC1)c1ccccc1`, the cell number change was -30.3%. Further, the AC50 under setting [1] was 6.51 µM [falling, full curve, poor fit]. Further, under setting [2], the AC50 was 4.11 µM [falling, full curve].

Consider `O=C1CCC(CCC(=O)N2CCCC(C(=O)c3cccc(C(F)(F)F)c3)C2)=NN1` (configuration not stated), for which the cell number change is -3.41%. Moreover, under setting [2], the AC50 is 0.00517 µM [falling, full curve, poor fit].
